Amino acid sequences for entries named in this document (tags omitted).
UniProt Q61687: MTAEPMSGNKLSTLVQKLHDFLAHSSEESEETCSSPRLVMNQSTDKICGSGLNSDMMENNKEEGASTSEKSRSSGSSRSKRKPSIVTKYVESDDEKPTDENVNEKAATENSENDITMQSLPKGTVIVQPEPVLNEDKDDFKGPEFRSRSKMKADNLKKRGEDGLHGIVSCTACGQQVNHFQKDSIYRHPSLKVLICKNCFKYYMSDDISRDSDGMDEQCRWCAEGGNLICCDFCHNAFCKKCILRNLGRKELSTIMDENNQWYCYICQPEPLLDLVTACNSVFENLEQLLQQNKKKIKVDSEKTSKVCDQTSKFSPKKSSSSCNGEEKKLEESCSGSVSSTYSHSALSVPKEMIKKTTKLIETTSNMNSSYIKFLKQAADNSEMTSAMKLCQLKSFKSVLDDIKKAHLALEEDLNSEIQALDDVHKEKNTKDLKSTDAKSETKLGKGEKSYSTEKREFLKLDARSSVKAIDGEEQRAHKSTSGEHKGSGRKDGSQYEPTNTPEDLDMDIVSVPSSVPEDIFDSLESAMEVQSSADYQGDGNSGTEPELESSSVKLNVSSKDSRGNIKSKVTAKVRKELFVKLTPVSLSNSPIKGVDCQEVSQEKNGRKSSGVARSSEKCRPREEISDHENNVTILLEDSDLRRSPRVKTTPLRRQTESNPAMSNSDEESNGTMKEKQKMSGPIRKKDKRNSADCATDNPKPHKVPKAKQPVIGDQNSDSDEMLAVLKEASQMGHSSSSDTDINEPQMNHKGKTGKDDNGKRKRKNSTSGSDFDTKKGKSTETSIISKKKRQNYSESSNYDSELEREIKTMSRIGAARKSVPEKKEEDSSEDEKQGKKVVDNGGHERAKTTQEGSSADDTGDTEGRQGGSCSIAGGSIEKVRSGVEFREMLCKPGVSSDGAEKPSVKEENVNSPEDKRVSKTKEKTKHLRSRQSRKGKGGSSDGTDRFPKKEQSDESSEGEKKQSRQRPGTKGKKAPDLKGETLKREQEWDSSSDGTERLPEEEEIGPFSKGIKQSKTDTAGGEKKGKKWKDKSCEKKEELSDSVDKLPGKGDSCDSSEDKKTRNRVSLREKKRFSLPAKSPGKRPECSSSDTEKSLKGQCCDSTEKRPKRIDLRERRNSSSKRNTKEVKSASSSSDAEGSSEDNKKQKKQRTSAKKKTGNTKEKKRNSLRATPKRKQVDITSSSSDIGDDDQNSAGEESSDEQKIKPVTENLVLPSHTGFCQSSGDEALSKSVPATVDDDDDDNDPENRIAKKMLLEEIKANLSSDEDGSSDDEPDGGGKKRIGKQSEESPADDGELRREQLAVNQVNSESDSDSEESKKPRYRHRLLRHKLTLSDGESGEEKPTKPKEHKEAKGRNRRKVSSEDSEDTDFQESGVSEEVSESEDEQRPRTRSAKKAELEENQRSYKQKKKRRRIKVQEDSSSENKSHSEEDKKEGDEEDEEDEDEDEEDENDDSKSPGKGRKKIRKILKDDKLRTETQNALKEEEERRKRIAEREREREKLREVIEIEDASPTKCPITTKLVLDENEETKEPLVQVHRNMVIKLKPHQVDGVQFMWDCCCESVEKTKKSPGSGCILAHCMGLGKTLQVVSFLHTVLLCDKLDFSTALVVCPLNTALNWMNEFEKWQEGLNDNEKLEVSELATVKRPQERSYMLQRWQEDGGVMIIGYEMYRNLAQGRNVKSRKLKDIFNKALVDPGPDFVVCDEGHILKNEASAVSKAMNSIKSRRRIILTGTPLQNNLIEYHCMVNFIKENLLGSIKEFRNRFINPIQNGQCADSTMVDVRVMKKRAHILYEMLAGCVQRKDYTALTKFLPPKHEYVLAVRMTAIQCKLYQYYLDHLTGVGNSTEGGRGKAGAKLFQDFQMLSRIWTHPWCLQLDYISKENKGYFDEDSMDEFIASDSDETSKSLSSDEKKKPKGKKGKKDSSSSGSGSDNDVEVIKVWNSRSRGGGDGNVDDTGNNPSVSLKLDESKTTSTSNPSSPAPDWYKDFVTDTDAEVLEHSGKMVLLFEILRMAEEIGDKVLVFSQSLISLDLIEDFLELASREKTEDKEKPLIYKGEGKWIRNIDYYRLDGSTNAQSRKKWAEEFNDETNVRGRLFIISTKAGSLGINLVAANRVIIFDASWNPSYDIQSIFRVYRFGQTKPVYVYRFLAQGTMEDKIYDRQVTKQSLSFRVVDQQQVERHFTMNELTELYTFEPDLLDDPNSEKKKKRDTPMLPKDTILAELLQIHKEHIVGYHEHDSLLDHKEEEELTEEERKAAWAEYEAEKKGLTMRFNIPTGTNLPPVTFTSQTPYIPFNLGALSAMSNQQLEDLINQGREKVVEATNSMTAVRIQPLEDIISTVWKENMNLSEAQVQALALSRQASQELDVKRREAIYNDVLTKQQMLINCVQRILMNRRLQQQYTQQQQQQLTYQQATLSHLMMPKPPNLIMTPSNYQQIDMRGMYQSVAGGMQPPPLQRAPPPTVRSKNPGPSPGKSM
UniProt Q08943: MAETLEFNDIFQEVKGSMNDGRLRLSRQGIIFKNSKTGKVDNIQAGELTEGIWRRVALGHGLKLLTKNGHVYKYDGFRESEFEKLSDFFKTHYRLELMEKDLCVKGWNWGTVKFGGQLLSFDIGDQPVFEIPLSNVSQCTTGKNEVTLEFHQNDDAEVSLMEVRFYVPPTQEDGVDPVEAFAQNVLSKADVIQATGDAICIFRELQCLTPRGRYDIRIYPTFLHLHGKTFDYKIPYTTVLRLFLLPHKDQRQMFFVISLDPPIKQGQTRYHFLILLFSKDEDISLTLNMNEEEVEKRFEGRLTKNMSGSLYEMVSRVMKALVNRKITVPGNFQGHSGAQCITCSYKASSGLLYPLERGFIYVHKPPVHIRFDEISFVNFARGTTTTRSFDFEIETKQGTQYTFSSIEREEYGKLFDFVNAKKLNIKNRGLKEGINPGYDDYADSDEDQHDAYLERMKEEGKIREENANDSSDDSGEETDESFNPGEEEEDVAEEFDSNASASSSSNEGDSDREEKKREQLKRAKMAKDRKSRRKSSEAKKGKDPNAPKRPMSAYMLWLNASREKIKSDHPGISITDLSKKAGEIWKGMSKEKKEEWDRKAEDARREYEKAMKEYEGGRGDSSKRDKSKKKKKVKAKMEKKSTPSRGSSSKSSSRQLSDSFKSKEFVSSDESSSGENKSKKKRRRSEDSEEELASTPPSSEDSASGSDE

In publication PMC4330348:

Target: Atrx (mouse (endogenous in MPC11)) (UniProt Q61687)
Test: affinity purification with mass spectrometry; immunoprecipitation of the endogenous bait with 5 μg antibody on protein G Dynabeads, 4 h, 4°C, 150 mM NaCl, 0.2% Triton X-100 washes; heavy-labelled MPC11 nuclear extracts against light isotype-control IP; SILAC H/L by mass spectrometry

- binding: binds
Substance: Ssrp1 (from UniProt Q08943 1-708)

These are yes or no findings as the source states them, for the method shown. In cells and extracts the contact can be indirect. A yes stands for co-enrichment or nearness to the bait. Other partners may have been found.
